Assay results as given in article doi:10.1101/2022.12.23.521694.
Like-named read-outs stand apart in the source and are kept apart here. These are yes or no findings as the source states them, for the method shown. Binding seen in cells or lysates may run through a third protein. Some binding calls cover weakened binding; strength is not graded here. For some assays here: Tags and fused reporters may be left off the sequences shown.

By UniProt entry, the sequences of proteins in these tests, tags left out. Where a name states a change or a piece, a line headed by the entry shows the natural chain unless it says otherwise.
UniProt Q70E73, whole entry: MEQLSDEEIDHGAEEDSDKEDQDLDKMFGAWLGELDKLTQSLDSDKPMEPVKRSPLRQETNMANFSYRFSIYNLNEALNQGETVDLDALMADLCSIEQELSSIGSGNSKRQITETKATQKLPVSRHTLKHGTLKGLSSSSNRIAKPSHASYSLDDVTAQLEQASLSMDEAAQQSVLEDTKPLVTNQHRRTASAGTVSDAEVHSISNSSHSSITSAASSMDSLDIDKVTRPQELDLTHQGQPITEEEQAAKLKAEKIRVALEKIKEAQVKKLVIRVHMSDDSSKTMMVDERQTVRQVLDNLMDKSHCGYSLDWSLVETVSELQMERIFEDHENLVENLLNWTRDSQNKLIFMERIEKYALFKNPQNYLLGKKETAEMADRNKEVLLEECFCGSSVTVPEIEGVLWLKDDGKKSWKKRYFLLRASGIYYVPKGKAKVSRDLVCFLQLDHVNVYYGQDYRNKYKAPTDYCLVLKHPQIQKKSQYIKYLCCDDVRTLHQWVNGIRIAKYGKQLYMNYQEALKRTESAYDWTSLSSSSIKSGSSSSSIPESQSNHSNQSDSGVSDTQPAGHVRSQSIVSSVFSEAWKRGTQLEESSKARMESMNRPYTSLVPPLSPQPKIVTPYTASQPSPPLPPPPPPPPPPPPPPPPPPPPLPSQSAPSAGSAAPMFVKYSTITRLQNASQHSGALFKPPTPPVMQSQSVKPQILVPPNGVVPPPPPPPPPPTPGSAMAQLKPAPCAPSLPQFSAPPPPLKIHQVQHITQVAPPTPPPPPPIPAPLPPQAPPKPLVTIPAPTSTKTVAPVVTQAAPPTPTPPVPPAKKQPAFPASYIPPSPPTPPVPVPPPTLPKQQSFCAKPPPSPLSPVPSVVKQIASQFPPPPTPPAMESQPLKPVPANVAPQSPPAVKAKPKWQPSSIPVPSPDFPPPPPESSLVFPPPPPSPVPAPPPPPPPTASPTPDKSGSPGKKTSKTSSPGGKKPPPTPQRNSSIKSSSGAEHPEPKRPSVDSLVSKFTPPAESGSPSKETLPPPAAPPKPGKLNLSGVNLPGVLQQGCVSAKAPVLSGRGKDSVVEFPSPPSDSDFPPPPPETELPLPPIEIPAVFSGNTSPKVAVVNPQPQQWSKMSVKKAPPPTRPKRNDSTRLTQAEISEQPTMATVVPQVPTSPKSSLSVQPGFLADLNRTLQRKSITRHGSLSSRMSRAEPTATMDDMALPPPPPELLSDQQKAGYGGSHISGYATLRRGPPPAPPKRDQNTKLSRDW
UniProt P49841, whole entry, looked up, stated change not applied: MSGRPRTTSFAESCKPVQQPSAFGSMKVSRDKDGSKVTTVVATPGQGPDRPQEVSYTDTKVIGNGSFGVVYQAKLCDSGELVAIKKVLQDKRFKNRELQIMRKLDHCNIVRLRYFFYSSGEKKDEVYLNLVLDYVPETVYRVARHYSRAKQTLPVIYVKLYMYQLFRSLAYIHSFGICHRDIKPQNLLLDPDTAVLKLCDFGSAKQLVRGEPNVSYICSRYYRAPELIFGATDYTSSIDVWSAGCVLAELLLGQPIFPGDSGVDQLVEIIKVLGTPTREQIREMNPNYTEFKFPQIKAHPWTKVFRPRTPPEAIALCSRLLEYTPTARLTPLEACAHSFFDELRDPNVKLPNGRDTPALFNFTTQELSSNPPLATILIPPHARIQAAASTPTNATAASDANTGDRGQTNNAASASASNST

B1: Myc-EVL (murine) (protein, UniProt P70429 1-414)
chain: MSEQSICQARASVMVYDDTSKKWVPIKPGQQGFSRINIYHNTASSTFRVVGVKLQDQQVVINYSIVKGLKYNQATPTFHQWRDARQVYGLNFASKEEATTFSNAMLFALNIMNSQEGGPSTQRQVQNGPSPEEMDIQRRQVMEQQHRQESLERRISATGPILPPGHPSSAASTTLSCSGPPPPPPPPVPPPPTGSTPPPPPPLPAGGAQGTNHDESSASGLAAALAGAKLRRVQRPEDASGGSSPSGTSKSDANRASSGGGGGGLMEEMNKLLAKRRKAASQTDKPADRKEDESQTEDPSTSPSPGTRATSQPPNSSEAGRKPWERSNSVEKPVSSLLSRTPSVAKSPEAKSPLQSQPHSRVKPAGSVNDVGLDALDLDRMKQEILEEVVRELHKVKEEIIDAIRQELSGISTT

Legend:
[1] = biological target: Lpd-EGFP fusion protein (human Lamellipodin) (human) (UniProt Q70E73); experiment: co-IP
[2] = biological target: Lpd-EGFP fusion protein (human Lamellipodin) (human) (UniProt Q70E73); experiment: co-IP; remark: listed apart in the source

Molecule | binding [1] | binding [2]
constitutively active HA-tagged GSK3β (HA-GSK3β-DA; GSK3 beta S9A) (from UniProt P49841 1-420) (enzyme) | binds weakly | –
B1 | – | binds
